Article PMC4668369
Results are given in words; binding and its absence hold for the method and conditions named. Binding seen in cells or lysates may run through a third protein. Some results given as binding are weak or reduced against the parent protein; the word gives no strength. For some assays here: Where a sequence is shown, tags or fusion partners need not be part of it.

By UniProt entry, the sequences of proteins in these tests, tags left out.
UniProt K9N643: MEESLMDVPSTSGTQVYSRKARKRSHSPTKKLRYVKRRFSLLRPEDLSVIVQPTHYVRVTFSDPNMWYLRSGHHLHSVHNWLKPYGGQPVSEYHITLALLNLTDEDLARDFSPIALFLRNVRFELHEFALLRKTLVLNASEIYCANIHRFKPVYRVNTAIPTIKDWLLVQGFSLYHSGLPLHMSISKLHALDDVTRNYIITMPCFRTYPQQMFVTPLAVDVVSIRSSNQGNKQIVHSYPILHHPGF

Columns and labels:
[1] = biological target: T1, Flag-MDA-5H (carboxyl terminal helicase domain of MDA5, aa 287–1025) (UniProt Q9BYX4); assay: co-IP
T1 sequence: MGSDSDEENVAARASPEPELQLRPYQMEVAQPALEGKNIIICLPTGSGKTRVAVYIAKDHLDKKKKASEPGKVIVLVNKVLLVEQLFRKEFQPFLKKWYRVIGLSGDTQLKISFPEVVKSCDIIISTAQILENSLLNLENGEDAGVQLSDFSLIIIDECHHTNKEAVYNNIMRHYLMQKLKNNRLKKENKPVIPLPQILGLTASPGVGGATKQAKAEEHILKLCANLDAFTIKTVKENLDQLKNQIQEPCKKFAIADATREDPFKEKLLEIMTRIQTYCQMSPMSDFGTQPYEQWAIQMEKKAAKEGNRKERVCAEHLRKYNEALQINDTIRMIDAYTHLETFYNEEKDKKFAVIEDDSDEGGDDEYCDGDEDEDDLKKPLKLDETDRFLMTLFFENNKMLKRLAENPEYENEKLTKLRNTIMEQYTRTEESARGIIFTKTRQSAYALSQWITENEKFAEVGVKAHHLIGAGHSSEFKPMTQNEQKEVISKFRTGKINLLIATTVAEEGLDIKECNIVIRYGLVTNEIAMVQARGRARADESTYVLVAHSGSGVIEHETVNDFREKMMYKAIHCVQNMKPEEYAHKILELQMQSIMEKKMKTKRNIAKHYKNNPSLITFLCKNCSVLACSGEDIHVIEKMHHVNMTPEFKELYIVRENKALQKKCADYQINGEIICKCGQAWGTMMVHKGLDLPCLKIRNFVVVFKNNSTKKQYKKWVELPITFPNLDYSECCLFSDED

[2] = biological target: Flag-MDA-5C (amino-terminal CARD domain of MDA5, aa 1–287) (UniProt Q9BYX4); assay: co-IP

In the case of “MERS-CoV ORF4b protein, HA-tagged (from UniProt K9N643 1-246)”, the binding [1] is reported as “binds” and the binding [2] is reported as “binds”.
